Reference: article doi:10.1101/2022.12.21.521423 (bioRxiv, 2022)
Read-outs that look alike come from different tables or passages of the source. These are yes or no findings as the source states them, for the method shown. For some of these results: Binding seen in cells or lysates may run through a third protein. Some binding calls cover weakened binding; strength is not graded here. For some of these results: Where a sequence is shown, tags or fusion partners need not be part of it.

The chains behind the UniProt entries cited, without tags or fusion partners. Where a name states a change or a piece, a line headed by the entry shows the natural chain unless it says otherwise. Residues count along the entry.
UniProt Q07699, 19-218: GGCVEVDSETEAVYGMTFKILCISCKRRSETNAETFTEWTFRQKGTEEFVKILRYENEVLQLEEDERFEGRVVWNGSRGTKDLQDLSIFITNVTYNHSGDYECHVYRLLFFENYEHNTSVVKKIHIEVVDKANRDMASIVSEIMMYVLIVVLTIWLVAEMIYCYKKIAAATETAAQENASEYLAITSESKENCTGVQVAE
UniProt A6NM11, 36-1700: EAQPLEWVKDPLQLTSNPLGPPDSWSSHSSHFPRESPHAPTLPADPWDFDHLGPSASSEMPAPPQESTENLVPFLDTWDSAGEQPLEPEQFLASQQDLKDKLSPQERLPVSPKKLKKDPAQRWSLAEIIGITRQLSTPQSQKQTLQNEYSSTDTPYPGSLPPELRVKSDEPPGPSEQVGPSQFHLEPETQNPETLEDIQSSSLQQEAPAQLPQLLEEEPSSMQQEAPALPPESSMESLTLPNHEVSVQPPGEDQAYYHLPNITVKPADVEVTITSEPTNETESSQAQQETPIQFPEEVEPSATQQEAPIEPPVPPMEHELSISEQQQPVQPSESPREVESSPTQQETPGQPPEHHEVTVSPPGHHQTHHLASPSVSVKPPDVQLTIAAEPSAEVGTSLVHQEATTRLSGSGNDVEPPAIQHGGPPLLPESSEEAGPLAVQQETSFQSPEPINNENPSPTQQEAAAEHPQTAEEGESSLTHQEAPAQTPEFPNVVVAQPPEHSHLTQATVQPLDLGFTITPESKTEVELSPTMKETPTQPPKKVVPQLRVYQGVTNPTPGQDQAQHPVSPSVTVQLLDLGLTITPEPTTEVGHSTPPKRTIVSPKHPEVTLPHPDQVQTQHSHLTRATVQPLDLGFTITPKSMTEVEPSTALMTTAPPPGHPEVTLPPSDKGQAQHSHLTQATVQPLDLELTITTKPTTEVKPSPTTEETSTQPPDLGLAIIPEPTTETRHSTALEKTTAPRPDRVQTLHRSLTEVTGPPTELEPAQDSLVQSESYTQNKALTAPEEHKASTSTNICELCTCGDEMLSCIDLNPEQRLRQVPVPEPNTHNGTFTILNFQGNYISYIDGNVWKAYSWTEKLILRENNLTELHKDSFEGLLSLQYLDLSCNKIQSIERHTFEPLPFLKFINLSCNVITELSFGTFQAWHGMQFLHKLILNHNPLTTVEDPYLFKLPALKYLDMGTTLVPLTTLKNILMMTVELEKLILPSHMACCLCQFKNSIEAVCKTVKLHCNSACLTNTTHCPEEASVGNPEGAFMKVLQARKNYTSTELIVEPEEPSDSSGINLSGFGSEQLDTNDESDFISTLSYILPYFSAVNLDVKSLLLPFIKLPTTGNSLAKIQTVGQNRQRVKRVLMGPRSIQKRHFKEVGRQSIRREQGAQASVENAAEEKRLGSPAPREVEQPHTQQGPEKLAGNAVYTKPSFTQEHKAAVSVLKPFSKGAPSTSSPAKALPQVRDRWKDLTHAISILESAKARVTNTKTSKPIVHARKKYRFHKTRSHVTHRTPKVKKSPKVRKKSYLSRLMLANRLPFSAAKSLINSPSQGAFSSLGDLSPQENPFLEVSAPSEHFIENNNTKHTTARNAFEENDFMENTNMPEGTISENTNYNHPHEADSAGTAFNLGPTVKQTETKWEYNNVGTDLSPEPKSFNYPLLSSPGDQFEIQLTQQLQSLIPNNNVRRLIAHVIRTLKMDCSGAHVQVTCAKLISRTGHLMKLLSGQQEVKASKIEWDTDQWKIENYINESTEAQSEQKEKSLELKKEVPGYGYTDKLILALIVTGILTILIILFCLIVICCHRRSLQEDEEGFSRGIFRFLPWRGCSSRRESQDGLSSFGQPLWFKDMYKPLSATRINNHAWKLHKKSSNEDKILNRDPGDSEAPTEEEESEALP
UniProt Q96QE4, 28-905: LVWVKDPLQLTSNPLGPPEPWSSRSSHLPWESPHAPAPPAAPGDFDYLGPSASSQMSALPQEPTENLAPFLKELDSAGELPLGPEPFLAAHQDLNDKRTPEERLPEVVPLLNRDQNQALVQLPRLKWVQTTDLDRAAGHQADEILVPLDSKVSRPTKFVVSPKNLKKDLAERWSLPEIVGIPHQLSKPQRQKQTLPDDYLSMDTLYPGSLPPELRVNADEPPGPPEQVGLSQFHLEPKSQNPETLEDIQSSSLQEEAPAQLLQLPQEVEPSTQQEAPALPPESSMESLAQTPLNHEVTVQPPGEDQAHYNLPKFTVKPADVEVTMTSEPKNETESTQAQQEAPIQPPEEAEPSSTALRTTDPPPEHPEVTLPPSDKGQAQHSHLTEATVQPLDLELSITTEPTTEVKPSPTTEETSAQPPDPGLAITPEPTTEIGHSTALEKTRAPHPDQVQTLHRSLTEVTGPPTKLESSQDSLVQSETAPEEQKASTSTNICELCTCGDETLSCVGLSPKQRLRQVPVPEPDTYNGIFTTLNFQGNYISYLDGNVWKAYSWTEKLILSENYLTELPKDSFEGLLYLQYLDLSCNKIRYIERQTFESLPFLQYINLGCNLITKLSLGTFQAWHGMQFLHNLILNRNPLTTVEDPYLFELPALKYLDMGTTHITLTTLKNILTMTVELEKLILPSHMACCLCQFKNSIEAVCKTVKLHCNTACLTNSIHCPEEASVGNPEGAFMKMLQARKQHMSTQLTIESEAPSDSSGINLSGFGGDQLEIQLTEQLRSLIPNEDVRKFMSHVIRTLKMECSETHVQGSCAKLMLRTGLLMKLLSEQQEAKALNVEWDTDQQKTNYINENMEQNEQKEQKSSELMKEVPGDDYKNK
UniProt Q96QE4, whole entry, looked up, stated change not applied: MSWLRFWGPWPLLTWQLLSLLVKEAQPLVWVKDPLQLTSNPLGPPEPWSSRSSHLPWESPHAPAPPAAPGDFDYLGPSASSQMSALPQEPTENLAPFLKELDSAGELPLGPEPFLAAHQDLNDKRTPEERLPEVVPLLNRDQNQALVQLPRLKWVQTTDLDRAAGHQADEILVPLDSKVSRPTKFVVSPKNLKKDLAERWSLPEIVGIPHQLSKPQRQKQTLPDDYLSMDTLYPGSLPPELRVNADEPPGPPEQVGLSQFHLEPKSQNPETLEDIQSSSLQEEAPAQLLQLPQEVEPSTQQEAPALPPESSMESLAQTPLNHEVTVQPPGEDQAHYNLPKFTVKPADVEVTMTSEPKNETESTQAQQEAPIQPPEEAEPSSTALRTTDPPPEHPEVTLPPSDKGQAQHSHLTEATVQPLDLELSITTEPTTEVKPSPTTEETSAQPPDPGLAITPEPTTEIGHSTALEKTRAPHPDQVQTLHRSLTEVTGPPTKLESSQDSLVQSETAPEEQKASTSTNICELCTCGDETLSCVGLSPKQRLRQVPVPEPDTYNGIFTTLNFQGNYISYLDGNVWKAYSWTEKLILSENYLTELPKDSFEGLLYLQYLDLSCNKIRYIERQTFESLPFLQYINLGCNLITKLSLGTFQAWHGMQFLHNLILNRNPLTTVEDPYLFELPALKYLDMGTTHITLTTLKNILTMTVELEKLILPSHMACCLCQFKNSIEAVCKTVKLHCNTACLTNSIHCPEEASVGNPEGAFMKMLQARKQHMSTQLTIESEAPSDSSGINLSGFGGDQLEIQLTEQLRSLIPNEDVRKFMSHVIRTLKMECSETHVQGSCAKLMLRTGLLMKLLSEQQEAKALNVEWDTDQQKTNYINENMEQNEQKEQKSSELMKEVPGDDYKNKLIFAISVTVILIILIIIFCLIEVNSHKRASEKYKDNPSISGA

Columns and labels:
SCN1B-FLAG = SCN1B-FLAG (UniProt Q07699); test: co-IP
[1] = molecular target: human LRRC37A2-HA (human) (UniProt A6NM11); test: co-IP
LRRC37B-HA (human) [2] = molecular target: LRRC37B-HA (human) (UniProt Q96QE4); test: co-IP
[3] = molecular target: HA-LRRC37B-LB-ECTO (human) (UniProt Q96QE4); test: co-IP
HA-LRRC37B-ECTO (human) [4] = molecular target: HA-LRRC37B-ECTO (human) (UniProt Q96QE4); test: co-IP
[5] = molecular target: LRRC37B-HA expressed in mouse cortex (human) (UniProt Q96QE4); test: co-IP
[6] = molecular target: HA-LRRC37B-ΔLRR-ECTO (human) (UniProt Q96QE4); test: co-IP
LRRC37B-HA (human) [7] = molecular target: LRRC37B-HA (human) (UniProt Q96QE4); test: co-IP; remark: listed apart in the source
NAV1.6 (SCN8A) = NAV1.6 (SCN8A) (UniProt Q9UQD0); test: co-IP
[8] = molecular target: HA-LRRC37B-LRR-ECTO (human) (UniProt Q96QE4); test: co-IP
HA-LRRC37B-ECTO (human) [9] = molecular target: HA-LRRC37B-ECTO (human) (UniProt Q96QE4); test: co-IP; remark: listed apart in the source
[10] = molecular target: HA-LRRC37B-ΔLRR-ECTO (human) (UniProt Q96QE4); test: cell-surface binding assay
[11] = molecular target: LRRC37B_ECTO fused with alkaline phosphatase (human) (UniProt Q96QE4); test: ELISA

Q: With “HA-LRRC37B-ECTO (from UniProt Q96QE4 28-905) (domain or fragment)” as the molecule, how does the binding (SCN1B-FLAG) read?
A: binds

Q: Which results are given for SCN1B-FLAG (from UniProt Q07699 19-218)?
A: binding [1]: no binding; binding (LRRC37B-HA (human) [2]): binds; binding [3]: binds; binding (HA-LRRC37B-ECTO (human) [4]): binds

Q: Which binding [5] does the source give for “FGF13A of mouse cortex (from UniProt P70377-1 1-245) (ligand)” here?
A: binds

B1: FGF13A E. coli recombinant protein (ligand, UniProt Q92913-1 1-245)
chain: MAAAIASSLIRQKRQAREREKSNACKCVSSPSKGKTSCDKNKLNVFSRVKLFGSKKRRRRRPEPQLKGIVTKLYSRQGYHLQLQADGTIDGTKDEDSTYTLFNLIPVGLRVVAIQGVQTKLYLAMNSEGYLYTSELFTPECKFKESVFENYYVTYSSMIYRQQQSGRGWYLGLNKEGEIMKGNHVKKNKPAAHFLPKPLKVAMYKEPSLHDLTEFSRSGSGTPTKSRSVSGVLNGGKSMSHNEST
Q: How did the binding [6] turn out when B1 was run?
A: no binding

Q: And the binding (LRRC37B-HA (human) [7])?
A: binds

Q: What about the binding (NAV1.6 (SCN8A)) of the same molecule?
A: binds

Q: What about the binding [8] of the same molecule?
A: binds

Q: What about the binding (HA-LRRC37B-ECTO (human) [9]) of the same molecule?
A: binds

B2: FGF13A ExonS synthetic peptide (peptide, UniProt Q92913-1 1-63)
peptide: MAAAIASSLIRQKRQAREREKSNACKCVSSPSKGKTSCDKNKLNVFSRVKLFGSKKRRRRRPE
Q: Which results are given for B2?
A: binding (LRRC37B-HA (human) [7]): binds; binding (NAV1.6 (SCN8A)): binds

B3: FGF13B (protein, UniProt Q92913-2 1-192)
chain: MALLRKSYSEPQLKGIVTKLYSRQGYHLQLQADGTIDGTKDEDSTYTLFNLIPVGLRVVAIQGVQTKLYLAMNSEGYLYTSELFTPECKFKESVFENYYVTYSSMIYRQQQSGRGWYLGLNKEGEIMKGNHVKKNKPAAHFLPKPLKVAMYKEPSLHDLTEFSRSGSGTPTKSRSVSGVLNGGKSMSHNEST
Q: B3 was tested. Which binding (LRRC37B-HA (human) [7]) did it give?
A: no binding

B4: FGF13A ExonS-biotin (peptide, UniProt Q92913-1 1-63)
peptide: MAAAIASSLIRQKRQAREREKSNACKCVSSPSKGKTSCDKNKLNVFSRVKLFGSKKRRRRRPE
modifications: biotin
Q: For B4, which binding [10] is on record?
A: no binding (tested: 100 nM)

B5: NFASC ectodomain fused to an Fc domain (Fc fusion, UniProt O94856 25-1217)
chain: IEIPMDPSIQNELTQPPTITKQSAKDHIVDPRDNILIECEAKGNPAPSFHWTRNSRFFNIAKDPRVSMRRRSGTLVIDFRSGGRPEEYEGEYQCFARNKFGTALSNRIRLQVSKSPLWPKENLDPVVVQEGAPLTLQCNPPPGLPSPVIFWMSSSMEPITQDKRVSQGHNGDLYFSNVMLQDMQTDYSCNARFHFTHTIQQKNPFTLKVLTTRGVAERTPSFMYPQGTASSQMVLRGMDLLLECIASGVPTPDIAWYKKGGDLPSDKAKFENFNKALRITNVSEEDSGEYFCLASNKMGSIRHTISVRVKAAPYWLDEPKNLILAPGEDGRLVCRANGNPKPTVQWMVNGEPLQSAPPNPNREVAGDTIIFRDTQISSRAVYQCNTSNEHGYLLANAFVSVLDVPPRMLSPRNQLIRVILYNRTRLDCPFFGSPIPTLRWFKNGQGSNLDGGNYHVYENGSLEIKMIRKEDQGIYTCVATNILGKAENQVRLEVKDPTRIYRMPEDQVARRGTTVQLECRVKHDPSLKLTVSWLKDDEPLYIGNRMKKEDDSLTIFGVAERDQGSYTCVASTELDQDLAKAYLTVLADQATPTNRLAALPKGRPDRPRDLELTDLAERSVRLTWIPGDANNSPITDYVVQFEEDQFQPGVWHDHSKYPGSVNSAVLRLSPYVNYQFRVIAINEVGSSHPSLPSERYRTSGAPPESNPGDVKGEGTRKNNMEITWTPMNATSAFGPNLRYIVKWRRRETREAWNNVTVWGSRYVVGQTPVYVPYEIRVQAENDFGKGPEPESVIGYSGEDYPRAAPTEVKVRVMNSTAISLQWNRVYSDTVQGQLREYRAYYWRESSLLKNLWVSQKRQQASFPGDRLRGVVSRLFPYSNYKLEMVVVNGRGDGPRSETKEFTTPEGVPSAPRRFRVRQPNLETINLEWDHPEHPNGIMIGYTLKYVAFNGTKVGKQIVENFSPNQTKFTVQRTDPVSRYRFTLSARTQVGSGEAVTEESPAPPNEATPTAAPPTLPPTTVGATGAVSSTDATAIAATTEATTVPIIPTVAPTTIATTTTVATTTTTTAAATTTTESPPTTTSGTKIHESAPDEQSIWNVTVLPNSKWANITWKHNFGPGTDFVVEYIDSNHTKKTVPVKAQAQPIQLTDLYPGMTYTLRVYSRDNEGISSTVITFMTSTAYTNNQADIATQGW
Q: How did the binding [11] turn out when B5 was run?
A: no binding

B6: PCDH19 ectodomain fused to an Fc domain (Fc fusion, UniProt Q8TAB3 22-678)
chain: LINLKYSVEEEQRAGTVIANVAKDAREAGFALDPRQASAFRVVSNSAPHLVDINPSSGLLVTKQKIDRDLLCRQSPKCIISLEVMSSSMEICVIKVEIKDLNDNAPSFPAAQIELEISEAASPGTRIPLDSAYDPDSGSFGVQTYELTPNELFGLEIKTRGDGSRFAELVVEKSLDRETQSHYSFRITALDGGDPPRLGTVGLSIKVTDSNDNNPVFSESTYAVSVPENSPPNTPVIRLNASDPDEGTNGQVVYSFYGYVNDRTRELFQIDPHSGLVTVTGALDYEEGHVYELDVQAKDLGPNSIPAHCKVTVSVLDTNDNPPVINLLSVNSELVEVSESAPPGYVIALVRVSDRDSGLNGRVQCRLLGNVPFRLQEYESFSTILVDGRLDREQHDQYNLTIQARDGGVPMLQSAKSFTVLITDENDNHPHFSKPYYQVIVQENNTPGAYLLSVSARDPDLGLNGSVSYQIVPSQVRDMPVFTYVSINPNSGDIYALRSFNHEQTKAFEFKVLAKDGGLPSLQSNATVRVIILDVNDNTPVITAPPLINGTAEVYIPRNSGIGYLVTVVKAEDYDEGENGRVTYDMTEGDRGFFEIDQVNGEVRTTRTFGESSKSSYELIVVAHDHGKTSLSASALVLIYLSPALDAQESMGSVNLS
Q: B6 was tested. Which binding [11] did it give?
A: no binding

B7: SLITRK1 ectodomain fused to an Fc domain (Fc fusion, UniProt Q96PX8 18-622)
chain: NVTGDVCKEKICSCNEIEGDLHVDCEKKGFTSLQRFTAPTSQFYHLFLHGNSLTRLFPNEFANFYNAVSLHMENNGLHEIVPGAFLGLQLVKRLHINNNKIKSFRKQTFLGLDDLEYLQADFNLLRDIDPGAFQDLNKLEVLILNDNLISTLPANVFQYVPITHLDLRGNRLKTLPYEEVLEQIPGIAEILLEDNPWDCTCDLLSLKEWLENIPKNALIGRVVCEAPTRLQGKDLNETTEQDLCPLKNRVDSSLPAPPAQEETFAPGPLPTPFKTNGQEDHATPGSAPNGGTKIPGNWQIKIRPTAAIATGSSRNKPLANSLPCPGGCSCDHIPGSGLKMNCNNRNVSSLADLKPKLSNVQELFLRDNKIHSIRKSHFVDYKNLILLDLGNNNIATVENNTFKNLLDLRWLYMDSNYLDTLSREKFAGLQNLEYLNVEYNAIQLILPGTFNAMPKLRILILNNNLLRSLPVDVFAGVSLSKLSLHNNYFMYLPVAGVLDQLTSIIQIDLHGNPWECSCTIVPFKQWAERLGSEVLMSDLKCETPVNFFRKDFMLLSNDEICPQLYARISPTLTSHSKNSTGLAETGTHSNSYLDTSRVSISVLVP
Q: How did the binding [11] turn out when B7 was run?
A: no binding

B8: SLITRK5 ectodomain fused to an Fc domain (Fc fusion, UniProt O94991 41-664)
chain: IDYYGEICDNACPCEEKDGILTVSCENRGIISLSEISPPRFPIYHLLLSGNLLNRLYPNEFVNYTGASILHLGSNVIQDIETGAFHGLRGLRRLHLNNNKLELLRDDTFLGLENLEYLQVDYNYISVIEPNAFGKLHLLQVLILNDNLLSSLPNNLFRFVPLTHLDLRGNRLKLLPYVGLLQHMDKVVELQLEENPWNCSCELISLKDWLDSISYSALVGDVVCETPFRLHGRDLDEVSKQELCPRRLISDYEMRPQTPLSTTGYLHTTPASVNSVATSSSAVYKPPLKPPKGTRQPNKPRVRPTSRQPSKDLGYSNYGPSIAYQTKSPVPLECPTACSCNLQISDLGLNVNCQERKIESIAELQPKPYNPKKMYLTENYIAVVRRTDFLEATGLDLLHLGNNRISMIQDRAFGDLTNLRRLYLNGNRIERLSPELFYGLQSLQYLFLQYNLIREIQSGTFDPVPNLQLLFLNNNLLQAMPSGVFSGLTLLRLNLRSNHFTSLPVSGVLDQLKSLIQIDLHDNPWDCTCDIVGMKLWVEQLKVGVLVDEVICKAPKKFAETDMRSIKSELLCPDYSDVVVSTPTPSSIQVPARTSAVTPAVRLNSTGAPASLGAGGGASSVPLS
Q: Which binding [11] does the source give for B8 here?
A: no binding
